Test results reported in the M2OR odorant receptor database.
The entries are a selection whose mix differs from that of the whole data set. The calls were merged from several studies; some rest on single wells. The list shows a part of the results.

Experiments:
Conditions in all cases: stereoisomer not certain
UniProt Q8VGU3 = target: T1, UniProt Q8VGU3
T1 sequence (whole entry): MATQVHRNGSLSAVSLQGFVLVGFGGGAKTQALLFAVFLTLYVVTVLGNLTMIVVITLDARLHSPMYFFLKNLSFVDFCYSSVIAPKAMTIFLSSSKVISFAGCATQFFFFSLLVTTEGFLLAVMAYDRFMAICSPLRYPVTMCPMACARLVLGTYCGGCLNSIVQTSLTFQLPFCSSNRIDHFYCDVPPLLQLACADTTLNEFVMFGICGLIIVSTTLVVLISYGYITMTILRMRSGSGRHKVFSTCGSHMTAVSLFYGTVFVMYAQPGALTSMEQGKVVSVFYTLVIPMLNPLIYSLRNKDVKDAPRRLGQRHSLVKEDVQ
In short: (§1)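 Each receptor–molecule pair is labelled responsive or non-responsive (inactive) according to whether the original authors judged the measured signal statistically different from baseline. The data were taken from the main text and supplementary material of published papers and checked for typos and inconsistencies. Assay methods differed by source, with transient luciferase assays in mammalian cell lines being common.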

UniProt Q8VGV7 = target: T2, UniProt Q8VGV7
T2 sequence (whole entry): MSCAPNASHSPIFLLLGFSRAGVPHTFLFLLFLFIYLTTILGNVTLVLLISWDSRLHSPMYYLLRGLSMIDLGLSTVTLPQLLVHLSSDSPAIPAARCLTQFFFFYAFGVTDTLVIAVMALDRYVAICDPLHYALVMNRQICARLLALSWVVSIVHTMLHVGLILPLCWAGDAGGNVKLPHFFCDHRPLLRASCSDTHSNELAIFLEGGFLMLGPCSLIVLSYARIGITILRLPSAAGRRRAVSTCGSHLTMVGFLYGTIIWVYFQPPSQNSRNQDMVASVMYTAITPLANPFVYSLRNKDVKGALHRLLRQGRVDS
In short: as §1

UniProt Q8VGW5 = target: T3, UniProt Q8VGW5
T3 sequence (whole entry): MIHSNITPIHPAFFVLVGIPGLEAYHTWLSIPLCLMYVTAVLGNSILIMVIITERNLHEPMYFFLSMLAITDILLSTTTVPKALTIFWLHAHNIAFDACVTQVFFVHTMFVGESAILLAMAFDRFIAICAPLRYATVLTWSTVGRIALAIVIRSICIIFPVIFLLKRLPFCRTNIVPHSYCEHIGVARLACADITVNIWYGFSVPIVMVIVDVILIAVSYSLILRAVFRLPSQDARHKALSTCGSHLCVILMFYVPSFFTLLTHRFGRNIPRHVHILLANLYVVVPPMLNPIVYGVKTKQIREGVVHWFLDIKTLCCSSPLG
In short: as §1

UniProt Q8VGX3 = target: T4, UniProt Q8VGX3
T4 sequence (whole entry): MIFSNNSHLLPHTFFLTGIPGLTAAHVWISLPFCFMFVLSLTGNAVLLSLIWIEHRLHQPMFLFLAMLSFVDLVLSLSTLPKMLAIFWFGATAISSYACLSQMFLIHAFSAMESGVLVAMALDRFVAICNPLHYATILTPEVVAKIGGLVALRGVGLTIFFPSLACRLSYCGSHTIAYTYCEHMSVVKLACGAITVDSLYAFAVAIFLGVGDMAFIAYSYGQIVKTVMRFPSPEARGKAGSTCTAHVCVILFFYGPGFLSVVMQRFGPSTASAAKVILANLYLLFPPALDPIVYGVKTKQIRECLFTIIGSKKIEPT
In short: as §1

UniProt Q8VGX5 = target: T5, UniProt Q8VGX5
T5 sequence (whole entry): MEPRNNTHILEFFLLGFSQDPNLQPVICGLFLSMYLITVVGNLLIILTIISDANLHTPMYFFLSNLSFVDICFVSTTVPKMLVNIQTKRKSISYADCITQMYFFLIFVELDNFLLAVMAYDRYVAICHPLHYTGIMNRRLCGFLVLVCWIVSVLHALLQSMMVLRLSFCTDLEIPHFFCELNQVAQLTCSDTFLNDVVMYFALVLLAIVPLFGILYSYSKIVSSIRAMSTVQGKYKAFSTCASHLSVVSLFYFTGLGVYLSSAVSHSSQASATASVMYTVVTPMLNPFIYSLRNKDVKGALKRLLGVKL
In short: as §1

UniProt Q8VGZ2 = target: T6, UniProt Q8VGZ2
T6 sequence (whole entry): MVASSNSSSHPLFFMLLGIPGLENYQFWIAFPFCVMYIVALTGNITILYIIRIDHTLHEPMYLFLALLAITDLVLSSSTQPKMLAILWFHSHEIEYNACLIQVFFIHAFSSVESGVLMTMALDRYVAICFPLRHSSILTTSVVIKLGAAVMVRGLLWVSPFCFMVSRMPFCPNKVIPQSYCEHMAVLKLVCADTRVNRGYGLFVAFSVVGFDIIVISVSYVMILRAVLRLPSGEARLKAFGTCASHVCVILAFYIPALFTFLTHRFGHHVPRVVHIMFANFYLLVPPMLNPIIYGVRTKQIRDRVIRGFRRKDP
In short: as §1

UniProt Q8VGZ7 = target: T7, UniProt Q8VGZ7
T7 sequence (whole entry): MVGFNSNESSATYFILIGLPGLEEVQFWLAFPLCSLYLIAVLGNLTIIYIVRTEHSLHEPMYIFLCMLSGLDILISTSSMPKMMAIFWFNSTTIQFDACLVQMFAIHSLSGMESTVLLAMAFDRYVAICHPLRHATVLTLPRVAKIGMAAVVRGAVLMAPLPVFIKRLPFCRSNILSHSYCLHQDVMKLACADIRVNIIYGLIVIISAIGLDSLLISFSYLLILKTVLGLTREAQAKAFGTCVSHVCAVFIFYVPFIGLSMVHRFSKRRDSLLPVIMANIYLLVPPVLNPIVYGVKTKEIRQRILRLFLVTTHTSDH
In short: as §1

UniProt Q8VH16 = target: T8, UniProt Q8VH16
T8 sequence (whole entry): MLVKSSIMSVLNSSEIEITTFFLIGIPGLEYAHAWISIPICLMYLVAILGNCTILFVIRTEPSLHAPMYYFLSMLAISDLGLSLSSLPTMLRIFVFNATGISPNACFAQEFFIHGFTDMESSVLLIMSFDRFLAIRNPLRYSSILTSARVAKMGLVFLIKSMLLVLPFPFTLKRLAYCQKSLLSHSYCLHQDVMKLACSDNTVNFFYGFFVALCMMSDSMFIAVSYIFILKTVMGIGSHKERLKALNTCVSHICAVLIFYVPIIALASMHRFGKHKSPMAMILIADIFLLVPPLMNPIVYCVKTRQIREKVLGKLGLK
In short: as §1

UniProt Q8VH18 = target: T9, UniProt Q8VH18
T9 sequence (whole entry): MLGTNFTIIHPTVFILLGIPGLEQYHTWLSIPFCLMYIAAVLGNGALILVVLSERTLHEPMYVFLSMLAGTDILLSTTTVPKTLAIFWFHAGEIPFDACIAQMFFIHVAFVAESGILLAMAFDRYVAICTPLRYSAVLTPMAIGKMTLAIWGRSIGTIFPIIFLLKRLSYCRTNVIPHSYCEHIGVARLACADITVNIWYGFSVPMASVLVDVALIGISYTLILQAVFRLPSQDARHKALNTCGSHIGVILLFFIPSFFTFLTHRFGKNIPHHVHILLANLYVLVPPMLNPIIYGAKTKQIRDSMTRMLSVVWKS
In short: as §1

UniProt Q8VH20 = target: T10, UniProt Q8VH20
T10 sequence (whole entry): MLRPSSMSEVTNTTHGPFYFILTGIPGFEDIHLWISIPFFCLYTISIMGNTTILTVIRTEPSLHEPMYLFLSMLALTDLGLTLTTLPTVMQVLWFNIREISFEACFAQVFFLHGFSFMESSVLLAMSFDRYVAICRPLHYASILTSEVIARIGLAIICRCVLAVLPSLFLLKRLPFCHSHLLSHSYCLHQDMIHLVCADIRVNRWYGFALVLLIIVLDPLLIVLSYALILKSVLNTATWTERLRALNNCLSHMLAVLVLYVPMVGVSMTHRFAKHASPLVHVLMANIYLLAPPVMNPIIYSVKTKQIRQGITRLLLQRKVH
In short: as §1

UniProt Q8VH21 = target: T11, UniProt Q8VH21
T11 sequence (whole entry): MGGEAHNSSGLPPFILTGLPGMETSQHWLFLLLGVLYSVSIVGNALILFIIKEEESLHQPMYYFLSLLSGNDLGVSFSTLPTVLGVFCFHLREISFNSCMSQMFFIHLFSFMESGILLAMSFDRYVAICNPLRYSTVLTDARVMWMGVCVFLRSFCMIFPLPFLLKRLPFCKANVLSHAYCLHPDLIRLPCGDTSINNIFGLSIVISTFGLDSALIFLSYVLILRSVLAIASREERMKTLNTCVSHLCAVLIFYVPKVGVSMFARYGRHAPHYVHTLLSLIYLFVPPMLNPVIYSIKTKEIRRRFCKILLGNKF
In short: as §1

UniProt Q920P1 = target: T12, UniProt Q920P1
T12 sequence (whole entry): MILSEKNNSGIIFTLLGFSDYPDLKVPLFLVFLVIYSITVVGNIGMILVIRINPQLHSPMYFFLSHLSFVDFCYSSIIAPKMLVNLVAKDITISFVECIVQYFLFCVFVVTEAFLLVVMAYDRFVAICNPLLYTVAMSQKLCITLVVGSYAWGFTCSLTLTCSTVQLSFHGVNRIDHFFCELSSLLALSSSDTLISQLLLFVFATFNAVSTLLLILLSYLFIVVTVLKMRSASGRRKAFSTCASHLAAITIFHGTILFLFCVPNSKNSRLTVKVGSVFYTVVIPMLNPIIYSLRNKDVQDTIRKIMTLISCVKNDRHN
In short: as §1

UniProt Q920P2 = target: T13, UniProt Q920P2
T13 sequence (whole entry): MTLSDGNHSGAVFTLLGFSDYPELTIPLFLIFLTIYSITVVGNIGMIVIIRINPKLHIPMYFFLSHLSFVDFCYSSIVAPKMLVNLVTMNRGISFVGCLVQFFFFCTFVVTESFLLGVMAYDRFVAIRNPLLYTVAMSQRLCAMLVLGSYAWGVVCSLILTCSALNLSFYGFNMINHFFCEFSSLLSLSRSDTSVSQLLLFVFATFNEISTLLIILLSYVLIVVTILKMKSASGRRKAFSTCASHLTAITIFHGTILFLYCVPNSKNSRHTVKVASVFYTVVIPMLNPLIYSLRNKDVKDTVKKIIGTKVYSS
In short: as §1

UniProt Q924H8 = target: T14, UniProt Q924H8
T14 sequence (whole entry): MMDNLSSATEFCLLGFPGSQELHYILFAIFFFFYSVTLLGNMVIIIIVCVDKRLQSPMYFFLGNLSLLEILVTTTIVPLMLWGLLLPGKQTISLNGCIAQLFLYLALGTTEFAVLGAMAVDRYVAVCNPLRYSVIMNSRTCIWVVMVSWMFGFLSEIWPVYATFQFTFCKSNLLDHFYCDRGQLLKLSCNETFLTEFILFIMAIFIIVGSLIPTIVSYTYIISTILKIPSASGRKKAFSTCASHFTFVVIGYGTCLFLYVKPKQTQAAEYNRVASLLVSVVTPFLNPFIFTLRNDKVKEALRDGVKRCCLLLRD
In short: as §1

Measured: odorant receptor agonist call

C=CCc1ccc(O)c(OC)c1
active: UniProt Q8VGX5 | UniProt Q920P2
inactive: all other assays above
